From the supplement of paper PMC7661543
The effect of the compound repeats well; differences between the knockouts mostly do not.

Tested on: HCC-38
Assay: relative cell number vs DMSO control (72 h) (% of DMSO); higher = less growth inhibition (more cells)
Method: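 QMAP-Seq: a pool of 5 breast cancer cell lines (ZR-75-1, SKBR3, HCC-38, MDA-MB-231, BT-20), each carrying 12 doxycycline-inducible Cas9 sgRNA perturbations (11 knockouts plus non-targeting sgNT), was treated with compounds for 72 h at four 10-fold doses (10 nM-10 uM or 1 nM-1 uM range). Barcodes were amplified and sequenced, and cell number was interpolated from 293T spike-in standard curves. The result is expressed as % of the median of DMSO wells. Two biological replicates.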

O=C(Nc1ccc([N+](=O)[O-])cc1Cl)c1cc(Cl)ccc1O [Niclosamide]
Settings | relative cell number
sgRNA knockout: sgATF3, 10 nM | 101
sgRNA knockout: sgATF3, 100 nM | 99.6
sgRNA knockout: sgATF3, 1000 nM | 109
sgRNA knockout: sgATF3, 10000 nM | 51.2
sgRNA knockout: sgATF4, 10 nM | 106
sgRNA knockout: sgATF4, 100 nM | 91
sgRNA knockout: sgATF4, 1000 nM | 113
sgRNA knockout: sgATF4, 10000 nM | 46
sgRNA knockout: sgATF6, 10 nM | 97.7
sgRNA knockout: sgATF6, 100 nM | 105
sgRNA knockout: sgATF6, 1000 nM | 116
sgRNA knockout: sgATF6, 10000 nM | 65.5
sgRNA knockout: sgATG7, 10 nM | 97.6
sgRNA knockout: sgATG7, 100 nM | 97.9
sgRNA knockout: sgATG7, 1000 nM | 104
sgRNA knockout: sgATG7, 10000 nM | 46.6
sgRNA knockout: sgERN1, 10 nM | 101
sgRNA knockout: sgERN1, 100 nM | 102
sgRNA knockout: sgERN1, 1000 nM | 106
sgRNA knockout: sgERN1, 10000 nM | 55.5
sgRNA knockout: sgHSF1, 10 nM | 104
sgRNA knockout: sgHSF1, 100 nM | 105
sgRNA knockout: sgHSF1, 1000 nM | 109
sgRNA knockout: sgHSF1, 10000 nM | 80.3
sgRNA knockout: sgHSF2, 10 nM | 109
sgRNA knockout: sgHSF2, 100 nM | 93
sgRNA knockout: sgHSF2, 1000 nM | 116
sgRNA knockout: sgHSF2, 10000 nM | 54.9
sgRNA knockout: sgKEAP1, 10 nM | 122
sgRNA knockout: sgKEAP1, 100 nM | 99.3
sgRNA knockout: sgKEAP1, 1000 nM | 115
sgRNA knockout: sgKEAP1, 10000 nM | 72.2
sgRNA knockout: sgNFE2L2, 10 nM | 98.8
sgRNA knockout: sgNFE2L2, 100 nM | 90.9
sgRNA knockout: sgNFE2L2, 1000 nM | 110
sgRNA knockout: sgNFE2L2, 10000 nM | 46.9
sgRNA knockout: sgSLC35F2, 10 nM | 102
sgRNA knockout: sgSLC35F2, 100 nM | 93.8
sgRNA knockout: sgSLC35F2, 1000 nM | 109
sgRNA knockout: sgSLC35F2, 10000 nM | 46
sgRNA knockout: sgXBP1, 10 nM | 101
sgRNA knockout: sgXBP1, 100 nM | 91.6
sgRNA knockout: sgXBP1, 1000 nM | 114
sgRNA knockout: sgXBP1, 10000 nM | 45.7

Cc1cn(-c2cc(NC(=O)c3ccc(C)c(Nc4nccc(-c5cccnc5)n4)c3)cc(C(F)(F)F)c2)cn1 [Nilotinib]
Settings | relative cell number
sgRNA knockout: sgATF3, 10 nM | 107
sgRNA knockout: sgATF3, 100 nM | 94.5
sgRNA knockout: sgATF3, 1000 nM | 106
sgRNA knockout: sgATF3, 10000 nM | 90.1
sgRNA knockout: sgATF4, 10 nM | 101
sgRNA knockout: sgATF4, 100 nM | 94.1
sgRNA knockout: sgATF4, 1000 nM | 94.9
sgRNA knockout: sgATF4, 10000 nM | 94.2
sgRNA knockout: sgATF6, 10 nM | 103
sgRNA knockout: sgATF6, 100 nM | 108
sgRNA knockout: sgATF6, 1000 nM | 114
sgRNA knockout: sgATF6, 10000 nM | 92.8
sgRNA knockout: sgATG7, 10 nM | 97.42
sgRNA knockout: sgATG7, 100 nM | 102
sgRNA knockout: sgATG7, 1000 nM | 102
sgRNA knockout: sgATG7, 10000 nM | 85
sgRNA knockout: sgERN1, 10 nM | 89.4
sgRNA knockout: sgERN1, 100 nM | 108
sgRNA knockout: sgERN1, 1000 nM | 108
sgRNA knockout: sgERN1, 10000 nM | 82.2
sgRNA knockout: sgHSF1, 10 nM | 117
sgRNA knockout: sgHSF1, 100 nM | 109
sgRNA knockout: sgHSF1, 1000 nM | 108
sgRNA knockout: sgHSF1, 10000 nM | 84.8
sgRNA knockout: sgHSF2, 10 nM | 108
sgRNA knockout: sgHSF2, 100 nM | 104.2
sgRNA knockout: sgHSF2, 1000 nM | 103
sgRNA knockout: sgHSF2, 10000 nM | 94.6
sgRNA knockout: sgKEAP1, 10 nM | 99.7
sgRNA knockout: sgKEAP1, 100 nM | 113
sgRNA knockout: sgKEAP1, 1000 nM | 120
sgRNA knockout: sgKEAP1, 10000 nM | 65.56
sgRNA knockout: sgNFE2L2, 10 nM | 92.2
sgRNA knockout: sgNFE2L2, 100 nM | 90.3
sgRNA knockout: sgNFE2L2, 1000 nM | 103
sgRNA knockout: sgNFE2L2, 10000 nM | 100
sgRNA knockout: sgSLC35F2, 10 nM | 91.7
sgRNA knockout: sgSLC35F2, 100 nM | 95.6
sgRNA knockout: sgSLC35F2, 1000 nM | 108
sgRNA knockout: sgSLC35F2, 10000 nM | 97.1
sgRNA knockout: sgXBP1, 10 nM | 96.1
sgRNA knockout: sgXBP1, 100 nM | 91.9
sgRNA knockout: sgXBP1, 1000 nM | 96.2
sgRNA knockout: sgXBP1, 10000 nM | 99.3

O=C(c1cc(Cc2n[nH]c(=O)c3ccccc23)ccc1F)N1CCN(C(=O)C2CC2)CC1 [Olaparib]
Settings | relative cell number
sgRNA knockout: sgATF3, 10 nM | 102
sgRNA knockout: sgATF3, 100 nM | 103
sgRNA knockout: sgATF3, 1000 nM | 86.4
sgRNA knockout: sgATF3, 10000 nM | 68.9
sgRNA knockout: sgATF4, 10 nM | 90.6
sgRNA knockout: sgATF4, 100 nM | 108
sgRNA knockout: sgATF4, 1000 nM | 87
sgRNA knockout: sgATF4, 10000 nM | 66.3
sgRNA knockout: sgATF6, 10 nM | 93.5
sgRNA knockout: sgATF6, 100 nM | 101
sgRNA knockout: sgATF6, 1000 nM | 89.3
sgRNA knockout: sgATF6, 10000 nM | 71
sgRNA knockout: sgATG7, 10 nM | 100.6
sgRNA knockout: sgATG7, 100 nM | 107
sgRNA knockout: sgATG7, 1000 nM | 81.2
sgRNA knockout: sgATG7, 10000 nM | 62
sgRNA knockout: sgERN1, 10 nM | 87.8
sgRNA knockout: sgERN1, 100 nM | 101
sgRNA knockout: sgERN1, 1000 nM | 83.2
sgRNA knockout: sgERN1, 10000 nM | 62.4
sgRNA knockout: sgHSF1, 10 nM | 91.2
sgRNA knockout: sgHSF1, 100 nM | 87.7
sgRNA knockout: sgHSF1, 1000 nM | 74.6
sgRNA knockout: sgHSF1, 10000 nM | 64.7
sgRNA knockout: sgHSF2, 10 nM | 91.6
sgRNA knockout: sgHSF2, 100 nM | 108.5
sgRNA knockout: sgHSF2, 1000 nM | 87.4
sgRNA knockout: sgHSF2, 10000 nM | 68
sgRNA knockout: sgKEAP1, 10 nM | 114
sgRNA knockout: sgKEAP1, 100 nM | 92.6
sgRNA knockout: sgKEAP1, 1000 nM | 92.8
sgRNA knockout: sgKEAP1, 10000 nM | 67.9
sgRNA knockout: sgNFE2L2, 10 nM | 93.4
sgRNA knockout: sgNFE2L2, 100 nM | 112
sgRNA knockout: sgNFE2L2, 1000 nM | 78.7
sgRNA knockout: sgNFE2L2, 10000 nM | 64.9
sgRNA knockout: sgSLC35F2, 10 nM | 95.9
sgRNA knockout: sgSLC35F2, 100 nM | 106
sgRNA knockout: sgSLC35F2, 1000 nM | 85
sgRNA knockout: sgSLC35F2, 10000 nM | 67.3
sgRNA knockout: sgXBP1, 10 nM | 92.2
sgRNA knockout: sgXBP1, 100 nM | 102
sgRNA knockout: sgXBP1, 1000 nM | 82.3
sgRNA knockout: sgXBP1, 10000 nM | 64.8
